# Some peptides are written in HELM: one residue between dots, names in brackets for other building blocks, links after the first $.
# Assay: general procedure: Fmoc solid-phase peptide synthesis; Fmoc-[D-Arg(Pbf)]6-Rink amide resin (0.18 mmol/g); Fmoc-Rink Amide MBHA resin (0.61 mmol/g) for 11a
# Settings: whole synthesis, 254 nm, scale of the general procedure 3.3…14 µmol
substance,measurement,value
PEPTIDE1{[NDBF-COCH2CO].[dR].[dR].[dR].[dR].[dR].[dR].[am]}$$$$V2.0,final HPLC purity,96.5%

# — publication PMC9573699 (Molecules, 2022)
